# Results taken from PubChem BioAssay AID1259354 (Paczesny and Yang Labs, IUPUI and University of Michigan, 2018).
# The chains behind the UniProt entries cited, without tags or fusion partners. Where a name states a change or a piece, a line headed by the entry shows the natural chain unless it says otherwise.
# UniProt Q01638: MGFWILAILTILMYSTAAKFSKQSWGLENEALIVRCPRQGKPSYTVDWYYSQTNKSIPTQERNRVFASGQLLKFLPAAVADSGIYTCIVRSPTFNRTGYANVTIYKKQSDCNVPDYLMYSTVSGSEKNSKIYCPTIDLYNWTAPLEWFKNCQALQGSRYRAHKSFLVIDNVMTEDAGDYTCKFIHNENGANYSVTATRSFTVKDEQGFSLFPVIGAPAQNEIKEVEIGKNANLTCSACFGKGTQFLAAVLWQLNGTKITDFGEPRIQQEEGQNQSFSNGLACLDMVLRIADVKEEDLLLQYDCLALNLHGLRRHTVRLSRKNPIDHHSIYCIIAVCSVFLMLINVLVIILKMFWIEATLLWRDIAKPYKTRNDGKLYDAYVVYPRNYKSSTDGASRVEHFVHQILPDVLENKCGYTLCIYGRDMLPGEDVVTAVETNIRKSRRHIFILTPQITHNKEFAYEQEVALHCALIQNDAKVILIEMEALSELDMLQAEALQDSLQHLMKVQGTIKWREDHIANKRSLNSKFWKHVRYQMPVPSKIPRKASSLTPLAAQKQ
# In all, about 78,000 compounds went through this assay and about 1,800 (2.3%) were called active. Inconclusive results, whose numbers are uncertain, are shown with a selection of clear calls. No stated cut-off is given here; in the data, active means inhibition above about 30%; inconclusive means mostly about 10% to 28%; inactive means weaker than that.
# Target: Interleukin-1 receptor-like 1 (Homo sapiens) (UniProt Q01638)
# Assay: blocks human ST2 binding to IL-33, primary screen, biochemical, AlphaLISA (AID 1259354)
# Settings: AlphaLISA ST2-Fc/biotin-IL-33 interaction, 1 h; at 17 µM, stronger effect = higher value
row,SMILES,inhibition
1,CC1=Nc2cc(-c3ccc(C)cc3)nn2C(=O)C1,inactive
2,COc1ccc(Nc2cc(C)nc(Nc3ccc(NC(=O)c4cc(OC)cc(OC)c4)cc3)n2)cc1,inconclusive: 20%
3,CC(=O)c1c(C)nc2nonc2c1N=CN(C)C,inactive
4,CC1(C)CC(=O)N(CC(=O)NCc2cccs2)c2ccccc2S1,inconclusive: 13%
5,Cc1cc(N2CCC(C)CC2)nc2ccc(NC(=O)CCC(=O)NCC3CCCO3)cc12 (centres undefined),inactive
6,Cc1cc(C(F)(F)F)nc(SCC(=O)Nc2c(C)n(C)n(-c3ccccc3)c2=O)n1,inconclusive: 14%
7,CCCCNC(=O)C1c2cc(OC)c(OC)cc2C(=O)N(C)C1c1ccc(OC)c(OC)c1 (centres undefined),inconclusive: 16%
8,O=C(c1cc2nc(-c3ccco3)cc(C(F)(F)Cl)n2n1)N1CCOCC1,inactive
9,CCc1ccc(N2COc3ccc4c(C)cc(=O)oc4c3C2)cc1,inconclusive: 13%
10,COc1ccc(-c2csc(/C(C#N)=C/c3ccccc3Cl)n2)cc1,active: 42%
11,Cn1c(=O)[nH]c(=O)c2c1nc(CN1CCOCC1)n2Cc1ccc(F)cc1,inconclusive: 11%
12,COc1ccc(-c2nccc(N3CCCC(O)C3)n2)cc1C (centres undefined),inconclusive: 12%
13,COc1ccc(C(=O)N2C[C@@H]3C[C@H](C2)c2ccc(NS(=O)(=O)c4ccc(NC(C)=O)cc4)c(=O)n2C3)cc1,inconclusive: 27%
14,CCOC(=O)C(C)Oc1cc2c(C(=O)OC)c(C)oc2cc1Br (centres undefined),inactive
15,COCCNS(=O)(=O)c1c(C)cc(C)cc1C,inconclusive: 16%
16,COc1cccc(Oc2nc3c(c(=O)n(C)c(=O)n3C)n2Cc2ccc(Br)cc2)c1,inconclusive: 12%
17,CC(=O)c1cccc(-c2nc(N)nc(NCc3ccccc3)n2)c1,inconclusive: 10%
18,Cc1nc(S(=O)(=O)N2CCC(N3CCCC3=O)CC2)cn1C,inconclusive: 17%
19,CCn1cc(S(=O)(=O)N2CCN(c3cc(-c4cccc(OC)c4)ncn3)CC2)cn1,inconclusive: 10%
20,C[C@H]1[C@@H]2[C@@H](O)C([C@H](C)C(=O)NCc3cccs3)CC[C@@]2(C)CC[C@@H]1NC(=O)c1ccc(C#N)cc1 (some centres undefined),inconclusive: 23%

# Not a retest: entries from further up.
row,SMILES,inhibition
14,CCOC(=O)C(C)Oc1cc2c(C(=O)OC)c(C)oc2cc1Br (centres undefined),inactive
15,COCCNS(=O)(=O)c1c(C)cc(C)cc1C,inconclusive: 16%
16,COc1cccc(Oc2nc3c(c(=O)n(C)c(=O)n3C)n2Cc2ccc(Br)cc2)c1,inconclusive: 12%

# Ordered by SMILES length (low to high): 3 of the compounds above
row,SMILES,inhibition
14,CCOC(=O)C(C)Oc1cc2c(C(=O)OC)c(C)oc2cc1Br (centres undefined),inactive
10,COc1ccc(-c2csc(/C(C#N)=C/c3ccccc3Cl)n2)cc1,active: 42%
5,Cc1cc(N2CCC(C)CC2)nc2ccc(NC(=O)CCC(=O)NCC3CCCO3)cc12 (centres undefined),inactive

# Carrying on.

row,SMILES,inhibition
1,O=C(c1cccc(C(=O)N2CCCc3ccccc32)c1)N1CCCc2ccccc21,inconclusive: 11%
2,CCn1ncc(C(=O)NCCOc2cccc3ccc(C)nc23)c1C,inconclusive: 10%
3,COc1ccc(Cn2c(CNC(=O)Cc3cccc(OC)c3)nc3cccnc32)cc1,inconclusive: 25%
4,CCOC(=O)C1(Cc2ccccc2F)CCCN(Cc2cn(CC)nc2C)C1 (centres undefined),inactive
5,CCCCN(CC)Cc1c(O)ccc2c3c(c(=O)oc12)CCC3,inconclusive: 10%
6,CC(C)Cc1cc(CN2CC(C(=O)O)CC2=O)on1 (centres undefined),inconclusive: 16%
7,O=C(NCCC1=CCCCC1)C1CCC(=O)N(CCc2ccccc2)C1 (centres undefined),inactive
8,CC(C)CN1CCNC(=O)C1CC(=O)N(C)Cc1cccc2cccnc12 (centres undefined),active: 79%
9,CCSc1nc(CC(=O)N2CCN(C(=O)C3CCCO3)CC2)cs1 (centres undefined),inconclusive: 12%
10,COCCNC(=O)c1ccc(CS(=O)c2ccccc2OC)o1 (centres undefined),inactive
11,c1cncc(-c2n[nH]c(CCn3ccnc3-c3ccc4c(c3)OCCO4)n2)c1,inconclusive: 14%
12,Cc1cc(C(=O)N2CCC(n3nc(C)cc3C)C2)c2ccc(F)cc2n1 (centres undefined),inactive
13,O=C(CCC1CCN(C(=O)C2=CCCCC2)CC1)NCc1cccc(C(F)(F)F)c1,inconclusive: 10%
14,O=c1c2cnn(-c3ccc(Cl)cc3)c2ncn1Cc1ccc(F)cc1,inactive
15,CC(=O)Nc1cccc(C(=O)N(Cc2ccsc2)CC2CCCO2)c1 (centres undefined),inconclusive: 15%
16,Nc1ncnc(Nc2ccc(Cl)cc2C(=O)c2ccccc2)c1[N+](=O)[O-],inactive
17,O=C(O)c1ccc(-n2c(Cc3ccccc3F)n[nH]c2=O)cc1,inconclusive: 15%
18,O=C(c1cc2ccccc2c(=O)o1)N1CCCCCC1,inconclusive: 11%
19,CCN(CC)Cc1cnc2c(C(=O)N3CCCCC3C(N)=O)cnn2c1 (centres undefined),inconclusive: 17%
20,O=C(O)c1ccc2c(c1)C(=O)N(CCCc1nc3ccccc3[nH]1)C2=O,inconclusive: 16%

row,SMILES,inhibition
1,COc1ccc(-c2c3c(=O)n(C)c(=O)n(C)c3cn2-c2ccccc2N)cc1,inconclusive: 11%
2,C=CCNc1ccccc1C(=O)N(C)Cc1ccc(CC)cn1,inactive
3,CCOc1ccc(C(=O)N2CCN(c3ccc([N+](=O)[O-])c(-n4nc(C)cc4C)c3)CC2)cc1,inactive
4,COc1cc(CN2CCN(Cc3cccc(OC)c3OC)CC2)c([N+](=O)[O-])cc1OC,inconclusive: 11%
5,CCc1nnc(CN(C(=O)c2ccccc2N2CCCC2)C(C)C)o1,inconclusive: 15%
6,Cn1c(=O)c2c(ncn2CC(=O)N2CCN(c3ccccc3F)CC2)n(C)c1=O,inconclusive: 13%
7,Cc1cc(=O)oc2cc(CN3CC[C@@H](c4ccc(F)cc4)[C@H](O)C3)ccc12,inactive
8,CCOc1cc(CN2CCN(C3CCCCCC3)CC2)ccc1OC,inconclusive: 13%
9,O=C(CCCc1ccccc1)Nc1ccc(C(=O)O)cc1,inactive
10,Cc1ccc(Cl)cc1NC(=O)C(NS(=O)(=O)c1cccs1)c1ccccc1 (centres undefined),inconclusive: 13%
11,CCOC(=O)C1C(=O)C=C(c2cccs2)CC1c1ccccc1C (centres undefined),inconclusive: 18%
12,CC(C)N1CC[C@@H]2[C@H]1C(=O)NC[C@H](CCC(=O)N1CCCC1)N2C,inconclusive: 14%
13,CCNC(=O)c1cn(CC(C)C)cc(C(=O)NCc2ccccc2C)c1=O,inconclusive: 12%
14,CCN(CC)S(=O)(=O)c1ccc(OC)c(NC(=O)Cc2ccc(Br)cc2)c1,inconclusive: 11%
15,C=CCn1c2ccccc2c2cc([N+](=O)[O-])ccc21,inconclusive: 24%
16,CC1CCc2oc3ccc(NS(=O)(=O)c4ccc(F)cc4)cc3c2C1 (centres undefined),inactive
17,C=CC[C@@H]1CC=C[C@@H](C)N1C(=O)c1nc2cccc(C)n2c1F,inactive
18,COCCN(Cc1ccc(C)cc1)C(=O)c1ccc(N(C)S(C)(=O)=O)cc1,inconclusive: 17%
19,NC(=O)c1cnc2n1CCN(C(=O)Cn1c(C3CC3)nc3ccccc31)C2,inconclusive: 21%
